Source: US8901042B2, “High throughput screen for measuring membrane effects” (Cornell University, priority 2009, dated 2014)

system: gramicidin A (gA) channels in DC22:1PC lipid bilayer vesicles; assay: gramicidin-based stopped-flow fluorescence quench assay (Tl+ influx into ANTS-filled, gA-doped LUVs); type: biochemical, Bacillus brevis; details: at the concentration where the molecules double or half the rate of fluorescence quenching
Description: 24 hours before fluorescence measurements, ANTS-filled liposomes were mixed 1:20 in S_Na_Buffer. For the portion of liposomes that are to be doped with gramicidin, the desired amount of gramicidins was added at this time. […] Gramicidin diluted in DMSO was used, but the added DMSO was kept to an absolute minimum (<0.1% of volume) as DMSO of >0.5% affects bilayer properties. The solution was stored at 12-13° C. in the dark.
The modifier in question was diluted in DMSO. The same amount of DMSO was added to all samples, including control.
For each condition: • 1. Use 1.5 mL of diluted ANTS-liposomes for each condition (compound, concentration). • 2. Add compound at the desired concentration and incubate for 10 min at 25° C. (keep in dark), or DMSO for controls. • 3. Record fluorescence, x8 repeats, with S_Na_Buffer (the first four should be removed due to mixing). • 4. Record fluorescence, x12 repeats, with S_Tl_Quencher (the first four should also be removed due to mixing).
Generate fluorescent liposomes. […] 1,2-Dierucoyl-sn-Glycero-3-Phosphocholine lipids, from Avanti Polar Lipids (Alabaster, Ala.), were bought in a lipid/chloroform solution and used without further purification. For each batch of vesicles, the lipid/chloroform solution was dried under nitrogen and then further dried in a dessicator under vacuum overnight to fully remove the chloroform. The dried lipid film was rehydrated in 100 mM NaNO3, 25 mM ANTS, 10 mM HEPES at pH 7.0 at room temperature over night, volume was adjusted to give a 10 mM lipid concentration. The suspension was then sonicated in a low power sonicator for 1 min, subjected to 5-6 freeze thaw cycles and extruded 21 times, at room temperature, using Avanti mini-extruder, Avanti Polar Lipids (Alabaster, Ala.), and a 0.1 μm Polycarbonate Membrane filter. External ANTS was removed by filtering though a PD-10 Desalting column, GE Healthcare (Piscataway, N.J.). Prepared ANTS-LUV stock was stored at 12-13° C. in the dark for a maximum of seven days. Before the fluorescence experiments ANTS-LUV stock was diluted 1:20 with 140 mM NaNO3, 10 mM HEPES, pH 7.0 buffer. For the portion of vesicles to be doped with gA the desired amount of gramicidin from Bacillus aneurinolyticus, Sigma Chemical Co. (St. Louis, Mo.), diluted in dimethylsulfoxide (DMSO) was added and incubated for 24 hours at 12-13° C. in the dark.
The final DMSO concentrations were kept consistent for all samples and under 0.5% with the exception of when DMSO was tested, then listed amounts where used and no DMSO was added to controls.
The fluorescence was measured using a SX.20 Stopped-Flow Spectrometer (Applied Photophysics, Leatherhead, UK), with a 150-W Xenon lamp, a two sample rapid mixing unit with machine dead time˜1.2 ms and a thermostatting water bath set to 25° C. The samples were excited at X=352 nm and fluorescence was recorded though λ=455 nm high pass filter with Pro-Data control software from Applied Photophysics, sampling 5000 points a second. For each sample at least 10 repeated mixing trials were measured, from two or more vesicle preparations. Each repeat was separately analyzed using MATLAB v7.4, The MathWorks, Inc (Natick, Mass.). The time course of fluorescence quenching was normalized to the average fluorescence without quencher, for that particular sample, and the first 2-100 ms of the time course was fitted with a stretched exponential. The initial influx rate is quantified as the rate of the stretched exponential at 2 ms.

Row | Compound | Lipids/drug: number of lipids per molecule at their active concentration (~1/mAM)
1 | COc1cc(CNC(=O)CCCC/C=C/C(C)C)ccc1O [Capsaicin] | 25
2 | (−)-epigallocatechin gallate | 50
3 | CCCCCCCCO[C@@H]1O[C@H](CO)[C@@H](O)[C@H](O)[C@H]1O [β-octylglucoside] | 2600
4 | O=c1c(-c2ccc(O)cc2)coc2cc(O)cc(O)c12 [Genistein] | 25
5 | Triton X-100 | 170
